Reference: the supplement of paper PMC10849652
This is one part of the list.

Protein sequences, listed by entry. Tags and fused reporters are not part of them. Lines headed by an entry give the natural chain unless they say otherwise; changes in a name come on top.
UniProt Q96SB3: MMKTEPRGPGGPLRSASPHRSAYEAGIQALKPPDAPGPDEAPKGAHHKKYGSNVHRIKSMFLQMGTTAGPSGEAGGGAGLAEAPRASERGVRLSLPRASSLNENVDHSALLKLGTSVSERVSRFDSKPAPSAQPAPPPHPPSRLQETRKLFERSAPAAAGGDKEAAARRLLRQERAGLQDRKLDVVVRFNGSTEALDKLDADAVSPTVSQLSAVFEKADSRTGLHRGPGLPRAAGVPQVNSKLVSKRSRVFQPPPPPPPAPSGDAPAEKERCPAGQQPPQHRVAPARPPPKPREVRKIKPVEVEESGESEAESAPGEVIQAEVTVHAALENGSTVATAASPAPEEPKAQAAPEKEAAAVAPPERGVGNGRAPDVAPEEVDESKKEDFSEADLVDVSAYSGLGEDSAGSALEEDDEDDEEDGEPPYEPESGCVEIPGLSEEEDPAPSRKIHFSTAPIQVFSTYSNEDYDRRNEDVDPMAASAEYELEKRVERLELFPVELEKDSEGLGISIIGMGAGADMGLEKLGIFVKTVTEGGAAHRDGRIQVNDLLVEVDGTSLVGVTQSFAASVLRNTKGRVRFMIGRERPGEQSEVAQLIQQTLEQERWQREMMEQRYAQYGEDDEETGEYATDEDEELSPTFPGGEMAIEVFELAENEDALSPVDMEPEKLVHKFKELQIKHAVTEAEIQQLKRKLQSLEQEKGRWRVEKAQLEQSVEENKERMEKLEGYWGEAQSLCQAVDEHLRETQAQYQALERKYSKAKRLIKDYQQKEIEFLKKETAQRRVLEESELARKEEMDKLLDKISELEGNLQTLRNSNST
UniProt O60828: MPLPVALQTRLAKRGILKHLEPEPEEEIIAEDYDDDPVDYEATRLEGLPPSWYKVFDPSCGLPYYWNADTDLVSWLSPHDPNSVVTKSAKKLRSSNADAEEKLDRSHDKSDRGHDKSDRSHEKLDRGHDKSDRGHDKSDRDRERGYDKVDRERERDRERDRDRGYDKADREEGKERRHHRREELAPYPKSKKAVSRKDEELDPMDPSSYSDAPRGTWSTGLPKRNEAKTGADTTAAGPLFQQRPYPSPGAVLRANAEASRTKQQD
UniProt O15355: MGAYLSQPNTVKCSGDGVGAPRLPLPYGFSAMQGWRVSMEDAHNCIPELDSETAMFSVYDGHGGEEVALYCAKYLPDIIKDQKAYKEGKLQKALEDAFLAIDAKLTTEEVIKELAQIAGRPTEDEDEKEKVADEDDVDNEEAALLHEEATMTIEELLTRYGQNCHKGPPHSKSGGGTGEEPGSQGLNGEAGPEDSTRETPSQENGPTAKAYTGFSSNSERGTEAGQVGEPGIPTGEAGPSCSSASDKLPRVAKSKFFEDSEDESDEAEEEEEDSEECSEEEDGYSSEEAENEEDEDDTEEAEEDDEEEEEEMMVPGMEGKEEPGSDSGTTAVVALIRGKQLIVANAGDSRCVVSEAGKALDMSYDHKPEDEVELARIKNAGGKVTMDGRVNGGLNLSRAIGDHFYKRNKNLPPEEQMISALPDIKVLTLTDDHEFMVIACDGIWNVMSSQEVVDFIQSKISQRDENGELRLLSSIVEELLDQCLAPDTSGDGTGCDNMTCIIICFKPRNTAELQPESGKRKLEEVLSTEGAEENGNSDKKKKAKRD
UniProt Q6NYC8: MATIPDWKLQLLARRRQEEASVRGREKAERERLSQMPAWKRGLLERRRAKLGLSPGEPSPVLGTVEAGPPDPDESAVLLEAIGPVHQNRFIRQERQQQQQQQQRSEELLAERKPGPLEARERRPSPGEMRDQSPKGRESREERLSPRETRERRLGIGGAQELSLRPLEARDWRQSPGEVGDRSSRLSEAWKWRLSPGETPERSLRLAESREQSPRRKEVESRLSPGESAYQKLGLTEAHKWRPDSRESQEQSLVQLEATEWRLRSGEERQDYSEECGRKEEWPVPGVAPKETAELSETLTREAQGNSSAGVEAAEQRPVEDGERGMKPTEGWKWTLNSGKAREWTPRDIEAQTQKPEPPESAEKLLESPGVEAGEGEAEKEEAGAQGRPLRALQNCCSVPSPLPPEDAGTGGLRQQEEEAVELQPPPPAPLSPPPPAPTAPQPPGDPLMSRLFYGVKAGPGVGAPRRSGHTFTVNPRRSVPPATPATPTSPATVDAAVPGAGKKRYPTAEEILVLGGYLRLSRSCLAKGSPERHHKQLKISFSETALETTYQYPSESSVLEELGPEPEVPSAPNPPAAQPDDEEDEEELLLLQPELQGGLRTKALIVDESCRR
UniProt P41236: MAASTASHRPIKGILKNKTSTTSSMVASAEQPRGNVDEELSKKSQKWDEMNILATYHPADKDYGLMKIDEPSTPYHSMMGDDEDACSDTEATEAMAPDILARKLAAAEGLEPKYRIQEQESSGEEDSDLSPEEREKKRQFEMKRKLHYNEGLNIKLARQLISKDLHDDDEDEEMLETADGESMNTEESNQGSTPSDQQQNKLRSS
UniProt P78527, whole entry, looked up: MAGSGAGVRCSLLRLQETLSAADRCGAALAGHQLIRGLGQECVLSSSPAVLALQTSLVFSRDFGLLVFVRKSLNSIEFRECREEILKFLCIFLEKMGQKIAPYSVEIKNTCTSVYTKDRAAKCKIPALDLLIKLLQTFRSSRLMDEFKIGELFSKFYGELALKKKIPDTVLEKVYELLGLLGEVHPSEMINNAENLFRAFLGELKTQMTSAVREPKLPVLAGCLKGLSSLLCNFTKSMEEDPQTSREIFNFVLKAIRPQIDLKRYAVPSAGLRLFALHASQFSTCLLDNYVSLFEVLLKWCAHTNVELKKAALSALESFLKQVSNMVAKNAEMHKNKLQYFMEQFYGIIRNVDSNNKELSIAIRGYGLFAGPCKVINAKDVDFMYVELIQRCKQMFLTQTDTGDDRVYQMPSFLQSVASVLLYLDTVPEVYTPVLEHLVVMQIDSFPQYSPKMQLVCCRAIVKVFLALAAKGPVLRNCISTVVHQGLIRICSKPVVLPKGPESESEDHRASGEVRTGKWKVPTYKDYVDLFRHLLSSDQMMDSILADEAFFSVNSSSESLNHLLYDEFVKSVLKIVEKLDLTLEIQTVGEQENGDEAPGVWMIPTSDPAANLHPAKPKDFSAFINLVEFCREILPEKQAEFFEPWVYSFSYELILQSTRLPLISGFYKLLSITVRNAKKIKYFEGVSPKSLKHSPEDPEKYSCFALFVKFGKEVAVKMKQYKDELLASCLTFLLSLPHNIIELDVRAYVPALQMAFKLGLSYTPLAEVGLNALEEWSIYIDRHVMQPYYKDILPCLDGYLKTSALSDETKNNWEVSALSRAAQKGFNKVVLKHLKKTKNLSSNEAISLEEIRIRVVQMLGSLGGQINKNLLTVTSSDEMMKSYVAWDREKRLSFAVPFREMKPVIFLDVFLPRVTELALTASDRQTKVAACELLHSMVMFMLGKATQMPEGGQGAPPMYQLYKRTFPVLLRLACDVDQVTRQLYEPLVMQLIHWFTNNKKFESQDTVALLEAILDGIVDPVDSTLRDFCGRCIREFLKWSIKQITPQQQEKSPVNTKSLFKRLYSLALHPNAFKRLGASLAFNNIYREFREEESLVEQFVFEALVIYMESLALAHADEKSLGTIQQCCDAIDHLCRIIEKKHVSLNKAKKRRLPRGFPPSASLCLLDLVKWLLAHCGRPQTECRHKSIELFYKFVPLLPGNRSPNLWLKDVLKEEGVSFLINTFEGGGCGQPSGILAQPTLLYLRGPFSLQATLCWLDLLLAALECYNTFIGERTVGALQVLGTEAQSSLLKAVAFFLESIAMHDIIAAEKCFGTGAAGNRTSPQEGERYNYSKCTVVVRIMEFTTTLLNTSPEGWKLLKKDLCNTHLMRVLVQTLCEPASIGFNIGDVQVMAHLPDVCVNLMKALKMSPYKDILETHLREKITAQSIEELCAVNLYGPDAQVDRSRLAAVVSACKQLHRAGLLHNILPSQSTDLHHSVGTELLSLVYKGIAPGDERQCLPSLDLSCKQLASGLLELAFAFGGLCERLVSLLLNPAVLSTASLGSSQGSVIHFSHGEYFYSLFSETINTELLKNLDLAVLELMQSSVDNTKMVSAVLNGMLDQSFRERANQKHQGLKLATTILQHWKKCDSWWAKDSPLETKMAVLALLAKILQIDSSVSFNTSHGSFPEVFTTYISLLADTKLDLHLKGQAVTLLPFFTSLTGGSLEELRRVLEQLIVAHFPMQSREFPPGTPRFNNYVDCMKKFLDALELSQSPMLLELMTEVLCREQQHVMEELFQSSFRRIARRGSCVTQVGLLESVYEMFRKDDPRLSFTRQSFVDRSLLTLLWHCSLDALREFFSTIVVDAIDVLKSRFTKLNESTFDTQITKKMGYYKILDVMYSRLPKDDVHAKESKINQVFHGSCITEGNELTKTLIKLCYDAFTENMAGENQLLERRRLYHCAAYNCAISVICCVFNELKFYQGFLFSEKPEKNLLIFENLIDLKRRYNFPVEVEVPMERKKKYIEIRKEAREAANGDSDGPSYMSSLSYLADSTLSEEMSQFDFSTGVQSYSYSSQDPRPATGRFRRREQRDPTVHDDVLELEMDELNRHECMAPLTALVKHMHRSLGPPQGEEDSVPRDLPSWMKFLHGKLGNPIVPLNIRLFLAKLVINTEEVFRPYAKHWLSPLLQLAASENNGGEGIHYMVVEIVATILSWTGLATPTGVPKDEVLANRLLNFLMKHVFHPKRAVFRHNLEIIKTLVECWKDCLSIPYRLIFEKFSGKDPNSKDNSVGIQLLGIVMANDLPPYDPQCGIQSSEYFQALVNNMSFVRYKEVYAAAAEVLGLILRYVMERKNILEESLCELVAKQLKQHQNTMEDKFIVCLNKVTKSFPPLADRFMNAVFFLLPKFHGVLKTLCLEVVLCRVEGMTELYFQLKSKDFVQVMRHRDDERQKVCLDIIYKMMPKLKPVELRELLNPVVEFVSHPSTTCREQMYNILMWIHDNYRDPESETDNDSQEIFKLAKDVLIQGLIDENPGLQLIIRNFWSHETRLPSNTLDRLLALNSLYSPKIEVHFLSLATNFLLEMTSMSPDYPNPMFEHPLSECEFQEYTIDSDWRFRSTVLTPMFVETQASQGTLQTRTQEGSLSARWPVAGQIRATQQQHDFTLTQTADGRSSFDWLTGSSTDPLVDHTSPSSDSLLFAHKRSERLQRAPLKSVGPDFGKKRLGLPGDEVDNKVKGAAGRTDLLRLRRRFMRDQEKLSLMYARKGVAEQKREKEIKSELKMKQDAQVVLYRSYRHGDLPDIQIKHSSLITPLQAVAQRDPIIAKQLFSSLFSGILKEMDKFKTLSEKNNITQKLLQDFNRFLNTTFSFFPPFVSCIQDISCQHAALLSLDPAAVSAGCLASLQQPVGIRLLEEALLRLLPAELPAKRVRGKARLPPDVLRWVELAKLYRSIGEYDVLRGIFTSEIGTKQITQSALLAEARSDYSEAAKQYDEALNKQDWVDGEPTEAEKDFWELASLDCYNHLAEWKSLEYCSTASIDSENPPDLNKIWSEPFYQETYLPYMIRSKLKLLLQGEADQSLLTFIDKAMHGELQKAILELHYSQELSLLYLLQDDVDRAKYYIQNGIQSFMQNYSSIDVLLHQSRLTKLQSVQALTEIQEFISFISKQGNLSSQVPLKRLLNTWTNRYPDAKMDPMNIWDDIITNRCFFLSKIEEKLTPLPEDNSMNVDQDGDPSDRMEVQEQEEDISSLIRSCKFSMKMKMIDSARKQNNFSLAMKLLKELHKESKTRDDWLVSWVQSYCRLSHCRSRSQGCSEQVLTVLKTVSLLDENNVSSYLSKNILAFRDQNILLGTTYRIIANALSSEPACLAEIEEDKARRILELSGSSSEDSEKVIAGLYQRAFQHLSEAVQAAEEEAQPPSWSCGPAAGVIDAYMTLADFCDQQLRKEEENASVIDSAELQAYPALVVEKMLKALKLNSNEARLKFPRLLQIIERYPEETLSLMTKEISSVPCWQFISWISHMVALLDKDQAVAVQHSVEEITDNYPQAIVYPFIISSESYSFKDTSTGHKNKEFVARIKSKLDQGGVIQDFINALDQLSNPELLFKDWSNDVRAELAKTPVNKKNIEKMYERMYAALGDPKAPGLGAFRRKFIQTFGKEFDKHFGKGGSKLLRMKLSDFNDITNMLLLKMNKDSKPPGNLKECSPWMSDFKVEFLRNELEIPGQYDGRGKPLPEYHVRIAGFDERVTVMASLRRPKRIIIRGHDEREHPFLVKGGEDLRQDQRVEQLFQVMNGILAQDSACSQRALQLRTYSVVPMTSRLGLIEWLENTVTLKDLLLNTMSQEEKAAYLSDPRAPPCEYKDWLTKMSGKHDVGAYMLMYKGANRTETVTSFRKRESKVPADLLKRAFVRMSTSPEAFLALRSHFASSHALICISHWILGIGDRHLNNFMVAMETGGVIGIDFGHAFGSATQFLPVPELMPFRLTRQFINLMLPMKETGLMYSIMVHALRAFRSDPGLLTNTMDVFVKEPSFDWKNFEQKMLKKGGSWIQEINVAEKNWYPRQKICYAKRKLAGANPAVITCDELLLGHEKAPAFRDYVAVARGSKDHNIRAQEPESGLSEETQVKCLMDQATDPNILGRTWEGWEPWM

Key:
Test in all cases: log2 fold change, soluble protein after heating vs DMSO (PISA); higher = thermal stabilisation; K562 cells, 10 uM, 30 min; active = over 0.2 and 3.5 SD of the protein, either way, in both replicates (recomputed)
[1] = compound: CC1=C(C=C(C=C1)NC(=O)C2=CC(=CC=C2)C(C)(C)C#N)NC3=CC4=C(C=C3)N=CN(C4=O)C
Procedure, shortened: (§1)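 Soluble protein was quantified by TMTpro 16plex LC-MS/MS after channel sums were equalised. It was obtained as the supernatant after 21,000xg for 90 min from pooled aliquots of K562 cells (2×10^6 cells/mL, 10 μM compound, 30 min) heated for 3 min across 48°C-58°C and extracted in PBS with 0.5% NP-40 at 4°C. Thermal stability values are relative to control samples and come from duplicates. They are given as log2 fold changes.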

[2] = compound: CC1=C(C=C(C=C1)NC(=O)C2=CC(=CC=C2)N(C)C)NC(=O)C3=CC=C(C=C3)O
Procedure, shortened: as §1

[3] = compound: CC1=CC=C(C=C1)SC2=C3C=C(SC3=CN=C2)C(=O)N
Procedure, shortened: as §1

[4] = compound: CC1=NC(=CC=C1)C2=C(N=C(N2)C(C)(C)C)C3=CC4=NC=CN=C4C=C3
Procedure, shortened: as §1

[5] = compound: CCCCN(Cc1ccc(C(=O)NO)cc1)C(=O)Nc1ccccc1 [Nexturastat A]
Procedure, shortened: as §1

[6] = compound: CCCS(=O)(=O)Nc1ccc(F)c(C(=O)c2c[nH]c3ncc(-c4ccc(Cl)cc4)cc23)c1F [vemurafenib]
Procedure, shortened: as §1

[7] = compound: CCCS(=O)(=O)Nc1ccc(F)c(C(=O)c2c[nH]c3ncc(Cl)cc23)c1F
Procedure, shortened: as §1

[8] = compound: CCCc1cc(C)[nH]c(=O)c1CNC(=O)c1cc(-c2ccnc(N3CCN(C)CC3)c2)cc2c1cnn2C(C)C
Procedure, shortened: as §1

[9] = compound: CCN(CC)Cc1ccc2cc(COC(=O)Nc3ccc(C(=O)NO)cc3)ccc2c1 [givinostat]
Procedure, shortened: as §1

[10] = compound: CCN(CCCOc1ccc2c(Nc3cc(CC(=O)Nc4cccc(F)c4)[nH]n3)ncnc2c1)CCOP(=O)(O)O [barasertib]
Procedure, shortened: as §1

Measured: log2 fold change

PRDX3 (UniProt P30048)
inactive: [1] 0.008 | [2] 0.009 | [3] 0 | [4] 0.068 | [5] 0.022 | [6] -0.008 | [7] -0.003 | [8] -0.014 | [9] 0.005 | [10] -0.031

PPT1 (UniProt P50897)
inactive: [1] -0.017 | [2] 0.009 | [3] 0.046 | [4] 0.013 | [5] -0.081 | [6] 0 | [7] -0.003 | [8] -0.107 | [9] -0.022 | [10] -0.017

PREPL (UniProt Q4J6C6)
inactive: [1] 0.013 | [2] 0 | [3] 0.027 | [4] -0.013 | [5] 0.031 | [6] -0.018 | [7] 0.04 | [8] -0.077 | [9] 0.031 | [10] 0.017

PRKACA (UniProt P17612)
inactive: [1] -0.002 | [2] -0.008 | [3] -0.023 | [4] 0.043 | [5] 0.099 | [6] 0.015 | [7] 0.019 | [8] -0.019 | [9] 0.006 | [10] -0.008

PRKAR2A (UniProt P13861)
inactive: [1] 0.141 | [2] 0.001 | [3] 0.011 | [4] -0.033 | [5] 0.008 | [6] -0.021 | [7] -0.021 | [8] 0.019 | [9] 0.024 | [10] -0.001

PPM1H (UniProt Q9ULR3)
inactive: [1] -0.071 | [2] -0.073 | [3] 0 | [4] 0.07 | [5] -0.005 | [6] -0.037 | [7] 0.003 | [8] -0.06 | [9] 0.027 | [10] 0.011

PRPS1 (UniProt P60891)
inactive: [1] 0.009 | [2] -0.01 | [3] -0.003 | [4] -0.014 | [5] 0 | [6] -0.017 | [7] 0.022 | [8] -0.054 | [9] -0.015 | [10] -0.071

PRKCQ (UniProt Q04759)
inactive: [1] 0.013 | [2] -0.043 | [3] 0.073 | [4] -0.004 | [5] -0.055 | [6] 0.015 | [7] 0.065 | [8] -0.065 | [9] 0.052 | [10] 0.03

PPP1CC isoform 2 (UniProt P36873)
inactive: [1] 0.034 | [2] 0.038 | [3] 0.016 | [4] 0.031 | [5] -0.033 | [6] 0.006 | [7] 0.006 | [8] 0.036 | [9] -0.11 | [10] -0.003

PPP1R9B (UniProt Q96SB3)
inactive: [1] -0.044 | [2] 0.086 | [3] -0.09 | [4] -0.267 | [5] 0.333 | [6] -0.03 | [7] 0.016 | [8] 0.111 | [9] 0.047 | [10] -0.047

PRCC (UniProt Q92733)
inactive: [1] -0.065 | [2] -0.004 | [3] -0.075 | [4] 0.003 | [5] 0.011 | [6] -0.034 | [7] -0.104 | [8] -0.01 | [9] -0.012 | [10] 0.019

PQBP1 (UniProt O60828)
inactive: [1] -0.051 | [2] 0.005 | [3] -0.045 | [4] -0.024 | [5] -0.018 | [6] 0.057 | [7] -0.058 | [8] -0.009 | [9] -0.001 | [10] -0.024

Random excerpt: two entries already listed.
PRKAR2A (UniProt P13861)
inactive: [1] 0.141 | [2] 0.001 | [3] 0.011 | [4] -0.033 | [5] 0.008 | [6] -0.021 | [7] -0.021 | [8] 0.019 | [9] 0.024 | [10] -0.001

PPT1 (UniProt P50897)
inactive: [1] -0.017 | [2] 0.009 | [3] 0.046 | [4] 0.013 | [5] -0.081 | [6] 0 | [7] -0.003 | [8] -0.107 | [9] -0.022 | [10] -0.017

Continuation:

PPP2R2A isoform 2 (UniProt P63151)
inactive: [1] -0.005 | [2] 0.004 | [3] 0.002 | [4] 0.013 | [5] -0.008 | [6] 0.001 | [7] 0.043 | [8] -0.008 | [9] 0.021 | [10] -0.017

PPP6R1 (UniProt Q9UPN7)
inactive: [1] 0.014 | [2] 0.023 | [3] 0.022 | [4] 0.036 | [5] -0.1 | [6] 0.08 | [7] 0.018 | [8] -0.001 | [9] -0.018 | [10] -0.025

PREP (UniProt P48147)
inactive: [1] -0.001 | [2] -0.021 | [3] 0.008 | [4] -0.019 | [5] 0.053 | [6] 0.037 | [7] 0.021 | [8] 0.057 | [9] 0.062 | [10] 0.027

PRKACB isoform 2 (UniProt P22694)
inactive: [1] -0.014 | [2] 0.015 | [3] 0.011 | [4] 0.077 | [5] 0.059 | [6] -0.007 | [7] 0.031 | [8] -0.129 | [9] -0.024 | [10] 0.036

PPM1G (UniProt O15355)
inactive: [1] 0.087 | [2] -0.04 | [3] -0.031 | [4] 0.048 | [5] -0.053 | [6] 0.112 | [7] 0.13 | [8] 0.067 | [9] 0.17 | [10] 0.052

PPP2R5D (UniProt Q14738)
inactive: [1] 0.062 | [2] -0.067 | [3] 0.034 | [4] 0.04 | [5] 0.009 | [6] 0.082 | [7] 0.174 | [8] 0.087 | [9] 0.014 | [10] 0.043

PPP6C isoform 3 (UniProt O00743)
inactive: [1] 0.018 | [2] 0.021 | [3] -0.036 | [4] 0.023 | [5] -0.043 | [6] -0.029 | [7] -0.033 | [8] -0.058 | [9] -0.032 | [10] -0.005

PPP6R3 isoform 5 (UniProt Q5H9R7)
inactive: [1] 0.015 | [2] -0.002 | [3] -0.002 | [4] 0.003 | [5] -0.005 | [6] -0.004 | [7] -0.007 | [8] -0.016 | [9] -0.016 | [10] 0.004

PPP1R18 (UniProt Q6NYC8)
inactive: [1] 0.028 | [2] 0.004 | [3] -0.043 | [4] 0.104 | [5] 0.011 | [6] 0.064 | [7] 0.052 | [8] -0.106 | [9] 0.009 | [10] 0.001

PPP1R2 (UniProt P41236)
inactive: [1] -0.028 | [2] 0.023 | [3] 0.024 | [4] -0.002 | [5] -0.045 | [6] -0.036 | [7] -0.041 | [8] -0.058 | [9] -0.031 | [10] 0.013

PRCP (UniProt P42785)
inactive: [1] 0 | [2] 0.061 | [3] 0.022 | [4] -0.002 | [5] 0.072 | [6] 0.008 | [7] 0.01 | [8] -0.082 | [9] 0.035 | [10] -0.008

PRKDC (UniProt P78527)
inactive: [1] 0.014 | [2] -0.017 | [3] 0.036 | [4] 0.025 | [5] -0.063 | [6] 0.018 | [7] 0.046 | [8] -0.005 | [9] -0.005 | [10] 0.025

PPP1R7 (UniProt Q15435)
inactive: [1] 0.003 | [2] 0.014 | [3] 0.04 | [4] 0.035 | [5] -0.076 | [6] -0.051 | [7] 0.034 | [8] -0.021 | [9] -0.017 | [10] 0.053

PRDX5 (UniProt P30044)
inactive: [1] -0.013 | [2] 0.005 | [3] 0.009 | [4] -0.011 | [5] -0.026 | [6] -0.032 | [7] -0.023 | [8] -0.046 | [9] -0.027 | [10] -0.002

PRDX4 (UniProt Q13162)
inactive: [1] 0.014 | [2] -0.024 | [3] -0.021 | [4] -0.013 | [5] -0.082 | [6] -0.008 | [7] -0.018 | [8] -0.143 | [9] -0.031 | [10] 0.024

PPP1CB (UniProt P62140)
inactive: [1] -0.032 | [2] 0.018 | [3] 0.027 | [4] 0.088 | [5] -0.036 | [6] 0.034 | [7] 0.047 | [8] -0.025 | [9] -0.005 | [10] 0.001

PPP1R11 (UniProt O60927)
inactive: [1] -0.044 | [2] 0.036 | [3] -0.108 | [4] -0.001 | [5] -0.01 | [6] -0.109 | [7] -0.026 | [8] 0.013 | [9] -0.106 | [10] 0.009
